Test results from patent US11414489B2, “Combination therapy with a hyaluronan-degrading enzyme and an immune checkpoint inhibitor” (HALOZYME, INC., priority 2014, dated 2022).
For at least one compound, name, drawing or mass did not settle the structure.

Columns and labels:
[1] = glucocorticoid administration; route (IV or PO); cited from earlier work
[2] = system: parental MH194+PSC4 syngeneic tumors; test: Tumor growth in parental MH194+PSC4 syngeneic tumor mouse model (tumor volume, TGI); format: in vivo, C57BL/6 mice; settings: Example 10; dexamethasone 1, 3, 5 mg/kg IP 24 h prior to anti-PD-1 4 mg/kg IP or saline
Method: MH194 mouse pancreatic carcinoma cells (derived from the KrasLSL.G12D/+p53R172H/+PdxCretg/+ genetically engineered mouse model) were engineered to constitutively express human hyaluronan synthase 3 (HAS3) as in Example 1A. Stably transduced cells, designated MH194/HAS3 cells, were selected by hygromycin treatment. MH194/HAS3 and parental MH194 cells were maintained in tissue culture as an adherent monolayer in DMEM medium supplemented with 2 mM L-glutamine and 10% fetal bovine serum at 37° C. and 5% CO2. […]
Tumor volumes were measured by ultrasound as in Example 1A2. Approximately 15-30 frames out of 150-200 frames were analyzed and a tumor volume calculated and expressed in mm^3. When using the HA quantitation procedure described in Example 1A3, tumors grown from parental MH194+PSC4 cells contained 263±16 ng HA/mg tissue, whereas tumors grown from MH194/HAS3+PSC4 cells contained 1783±99 ng HA/mg tissue.
Mice containing parental MH194+PSC4 syngeneic tumors generated as described in Example 1C, with a mean tumor volume of 131±26 mm^3, were randomized into treatment groups, each containing 6 mice, such that the mean tumor volume of each group were substantially the same. […] Tumor volumes were measured on days 0, 3, 7, 10, 14, 17, and 21. […]

SMILES: C[C@@H]1C[C@H]2[C@@H]3CCC4=CC(=O)C=C[C@]4(C)[C@@]3(F)[C@@H](O)C[C@]2(C)[C@@]1(O)C(=O)CO [Dexamethasone, reference compound]
- Equivalent Potency [1]: 0.5 to 0.75 mg
- effect on tumor growth (in words) [2]: significantly inhibited tumor growth only at the highest dose tested
